No constants are given. Whether binding was seen depends on the method and setting. Binding seen in cells or lysates may run through a third protein. Some binding calls cover weakened binding; strength is not graded here. Where a sequence is shown, tags or fusion partners need not be part of it.
Biological target: T1, human MMRN1 N-terminal EMI-Myc-His6 (first 290 amino acids of Multimerin-1, wild type) (human) (UniProt Q13201)
T1 sequence: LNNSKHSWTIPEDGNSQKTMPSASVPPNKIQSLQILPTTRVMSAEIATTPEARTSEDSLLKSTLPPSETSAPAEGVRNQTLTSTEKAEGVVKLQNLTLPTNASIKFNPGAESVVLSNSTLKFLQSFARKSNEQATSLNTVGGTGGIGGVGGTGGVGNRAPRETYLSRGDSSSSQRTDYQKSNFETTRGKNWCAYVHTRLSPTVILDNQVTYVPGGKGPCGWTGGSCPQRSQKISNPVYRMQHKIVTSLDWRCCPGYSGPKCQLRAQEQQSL
Assay: co-IP; HEK293 cells co-transfected with EMI-Myc and FUT plasmids, 24 h; lysis in 1% Igepal CA-630, 50 mM Tris-HCl pH 7.4, 150 mM NaCl, 5% glycerol, 1 mM MgCl2; anti-c-Myc (9E10) magnetic beads, 4 °C, 2 h; eluted proteins digested and quantified by LC-MS/MS (label-free quantification, MaxQuant), n = 3

B1: full-length FUT11-FLAG (enzyme, UniProt Q495W5 1-492)
chain: MAAGPIRVVLVLLGVLSVCAASGHGSVAEREAGGEAEWAEPWDGAVFRPPSALGAVGVTRSSGTPRPGREEAGDLPVLLWWSPGLFPHFPGDSERIECARGACVASRNRRALRDSRTRALLFYGTDFRASAAPLPRLAHQSWALLHEESPLNNFLLSHGPGIRLFNLTSTFSRHSDYPLSLQWLPGTAYLRRPVPPPMERAEWRRRGYAPLLYLQSHCDVPADRDRYVRELMRHIPVDSYGKCLQNRELPTARLQDTATATTEDPELLAFLSRYKFHLALENAICNDYMTEKLWRPMHLGAVPVYRGSPSVRDWMPNNHSVILIDDFESPQKLAEFIDFLDKNDEEYMKYLAYKQPGGITNQFLLDSLKHREWGVNDPLLPNYLNGFECFVCDYELARLDAEKAHAASPGDSPVFEPHIAQPSHMDCPVPTPGFGNVEEIPENDSWKEMWLQDYWQGLDQGEALTAMIHNNETEQTKFWDYLHEIFMKRQHL
Question: Which binding does the source give for B1 here?
Answer: binds

Reference: paper PMC11949838, “FUT10 and FUT11 are protein O-fucosyltransferases that modify protein EMI domains” (Nature Chemical Biology, 2025)
